# This is one part of the list. These are further read-outs of the screen, such as a control signal, another cell line or another target. No call is given for them. The list favours compounds with an active or inconclusive main result. Potencies come from curve fits of mixed quality, noted in brackets.
# Assay: qHTS Assay for Lipid Storage Modulators in Drosophila S3 Cells;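 for cell number change: cells counted by Cell Tracker Red CMTPX staining in the red channel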
# Settings: BODIPY lipid droplet fluorescence, 18-24 h; for cell number change: measured here: cell count max response, cells fed with added oleic acid
# Outline: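 Drosophila S3 cells got compounds at several concentrations plus oleic acid (400 uM solution). Laser-scanning cytometry with 488 nm excitation read lipid droplets at 500-530 nm and cells at 575-640 nm. Percent activity was relative to 20 uM Triacsin C.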
# [1] = measured here: cell number channel AC50, cells fed with added oleic acid
# [2] = measured here: lipid fluorescence (Fed channel) AC50, cells fed with added oleic acid
SMILES,cell number change,AC50 [1],AC50 [2]
Cc1c(NC(=O)C(C)OC(=O)CC2Sc3ccccc3NC2=O)c(=O)n(-c2ccccc2)n1C (stereo not given),35.7%,"29.1 µM [rising, single point]",–
O=C(NC(=S)N1CCN(Cc2ccccc2)CC1)c1ccco1,–,"0.103 µM [rising, single point]",–
Cc1cccc(C(=O)NCC(C)NC(=O)c2cccc(C)c2)c1 (stereo not given),4.38%,–,"23.1 µM [rising, single point]"
CC1CC(C)CN(C(=O)CN(C)S(=O)(=O)c2ccc3c(c2)c(=O)n(C)c(=O)n3C)C1 (stereo not given),-23.3%,"2.31 µM [falling, partial curve]",–
CN(Cc1cccc(F)c1)C(=O)c1ccc2c(=O)n3c(nc2c1)CCC3,-52.7%,"1.3 µM [falling, full curve]","0.184 µM [falling, full curve]"
CC1=Nc2cc(C(=O)NCCN3CCOCC3)ccc2Sc2c(C)ccc(C)c21,20.2%,–,"2.31 µM [rising, partial curve]"
Cc1cc(=O)[nH]c(N/N=C/C=C/c2ccccc2)n1,8.28%,"2.06 µM [falling, single point]","3.66 µM [falling, single point]"
Cc1ccsc1/C=N/N=C/c1sccc1C,–,–,"20.6 µM [falling, partial curve]"
CCCC/C(O)=C1\C(=O)CCCC1=NCCc1c(C)[nH]c2ccc(OC)cc12,–,"0.517 µM [rising, full curve]","0.651 µM [rising, partial curve, poor fit]"
COc1ccc(Cl)cc1Nc1cc(C)nc2nc(C)nn12,9.38%,–,"13 µM [rising, partial curve]"
CCN1CCN(C(=O)/C=C/c2cccc(Cl)c2)CC1,23.7%,–,"0.00461 µM [rising, full curve, poor fit]"
COc1ccccc1NC(=O)/C(=C/c1cccc([N+](=O)[O-])c1)c1ccccc1,-4.07%,–,–
O=C(OCC(=O)N1CCN(C(=O)c2ccco2)CC1)c1ccccc1NCCO,-9.67%,–,"25.9 µM [rising, single point]"
O=C(O)CCn1cc(/C=C2\NC(=S)N(c3ccccc3)C2=O)c(-c2ccc(Br)cc2)n1,19.9%,–,–
O=C(C1COc2ccccc2O1)N1CCCC1 (stereo not given),–,–,"1.64 µM [falling, partial curve]"
O=C(NCCCN1CCOCC1)C(=O)N/N=C/c1ccccc1,-31.3%,"3.26 µM [falling, partial curve]",–
O=C(Nc1nc2c(s1)CN(Cc1ccccc1)CC2)c1c(F)cccc1F,10.3%,–,"10.3 µM [falling, single point]"
CCN1C(=O)[C@H]2[C@@H](c3ccc(-c4ccc(F)cc4)cc3)N[C@@](CC(C)C)(C(=O)OC)[C@H]2C1=O,-26.9%,–,"16.4 µM [falling, partial curve, poor fit]"
COC(=O)CN(c1ccccc1OC)S(=O)(=O)c1ccccc1,-152%,"23.1 µM [falling, partial curve]",–

# Among those listed so far, these contain four or more nitrogen atoms:
SMILES,cell number change,AC50 [1],AC50 [2]
Cc1c(NC(=O)C(C)OC(=O)CC2Sc3ccccc3NC2=O)c(=O)n(-c2ccccc2)n1C (stereo not given),35.7%,"29.1 µM [rising, single point]",–
CC1CC(C)CN(C(=O)CN(C)S(=O)(=O)c2ccc3c(c2)c(=O)n(C)c(=O)n3C)C1 (stereo not given),-23.3%,"2.31 µM [falling, partial curve]",–
Cc1cc(=O)[nH]c(N/N=C/C=C/c2ccccc2)n1,8.28%,"2.06 µM [falling, single point]","3.66 µM [falling, single point]"
COc1ccc(Cl)cc1Nc1cc(C)nc2nc(C)nn12,9.38%,–,"13 µM [rising, partial curve]"
O=C(O)CCn1cc(/C=C2\NC(=S)N(c3ccccc3)C2=O)c(-c2ccc(Br)cc2)n1,19.9%,–,–
O=C(NCCCN1CCOCC1)C(=O)N/N=C/c1ccccc1,-31.3%,"3.26 µM [falling, partial curve]",–

# More entries.

SMILES,cell number change,AC50 [1],AC50 [2]
CC1(C)C2CCC1(CS(=O)(=O)N1CCN(c3ccccc3F)CC1)C(=O)C2 (stereo not given),-3.28%,"4.61 µM [rising, single point]","6.51 µM [rising, single point]"
Cc1ccnc(NC(=O)CCNC(=O)c2ccc(Cl)cc2)c1,4.86%,–,"18.4 µM [falling, single point]"
COc1cccc(CNC(=O)c2nnn(-c3ccc(OC(F)(F)F)cc3)c2N)c1,–,"6.51 µM [rising, single point]","20.6 µM [rising, partial curve]"
CCOC(=O)N1CCN(C2CCCN(C(=O)c3ccccc3SC)C2)CC1 (stereo not given),-72.4%,"9.2 µM [falling, partial curve]","5.8 µM [falling, full curve]"
COc1ccc([C@@H]2[C@@H]3C(=O)N(C(C)(C)C)C(=O)[C@@H]3[C@]3(Cc4ccccc4)C(=O)N(c4ccc(C(F)(F)F)cc4)C(=O)N23)cc1,-2.91%,–,–
CC1Sc2ccc(S(=O)(=O)N3CCC(C(=O)N(C)Cc4ccccc4)CC3)cc2NC1=O (stereo not given),3.77%,–,"23.1 µM [falling, single point]"
COC(=O)c1c(NC(=S)NN2CCN(C)CC2)sc2c1CCC(C)C2 (stereo not given),-55.2%,"20.6 µM [falling, single point]","18.4 µM [falling, single point]"
CCCOC(=O)CSc1nnc(-c2ccccc2Cl)o1,32.3%,"3.26 µM [rising, full curve]","1.64 µM [falling, partial curve]"
O=C(NCCc1ccccc1)c1ccc2c(c1)N(Cc1ccccc1)C(=O)CS2=O (stereo not given),–,"4.11 µM [rising, single point]","6.51 µM [rising, single point]"
O=C(CN1CCN(S(=O)(=O)c2cccc(Cl)c2)CC1)N1CCCCC1,-16%,–,–
CCOC(=O)/C(C#N)=C/Nc1cc(OC)ccc1OC,32.1%,"2.59 µM [rising, partial curve]",–
Oc1ccc2ccccc2c1CNn1cnnc1,-5.6%,–,"29.1 µM [rising, partial curve, poor fit]"
O=c1[nH]c2ccc(NS(=O)(=O)c3ccc([N+](=O)[O-])cc3)cc2[nH]1,-22.2%,–,"29.1 µM [falling, single point]"
COCCCNC(=O)C1CCN(C(=O)c2oc3cc4sc(N(C)C)nc4cc3c2C)CC1,-68.2%,"14.6 µM [falling, single point]",–
CC(=O)OCC1OC(OCc2cn(C[C@H]3CC[C@H](Cn4cc(COC5OC(COC(C)=O)C(OC(C)=O)C(OC(C)=O)C5OC(C)=O)nn4)O3)nn2)C(OC(C)=O)C(OC(C)=O)C1OC(C)=O (stereo not given in full),14.9%,–,–
CC(O/N=C/c1ccc(OC(F)F)cc1)C(=O)Nc1cccc(S(=O)(=O)N2CCOCC2)c1 (stereo not given),15.3%,–,–
Cc1cccc(NC(=O)c2ccc(N3CCOCC3)c([N+](=O)[O-])c2)n1,42.2%,–,–
Cc1ccc(C)c(OC(=O)c2cncc(Br)c2)c1,7.8%,–,"0.0731 µM [rising, full curve, poor fit]"

# Source: PubChem BioAssay AID2685 (National Center for Advancing Translational Sciences (NCATS), 2010)
